Values joined by “and” are separate entries in the source; they are usually repeats but may differ in a detail not shown here. Identical values can stand only once. In all, about 300,000 compounds went through this assay and about 5,400 (1.8%) were called active. Inconclusive means that the source gave no clear call. Such entries were picked first, then a sample of the others. The call rests on the fitted dose curve; tested in HEK293 cells. A potency beside an inconclusive call is a rough fit, not a confirmed value.
Assay: qHTS for inhibitors of binding or entry into cells for Marburg Virus
Settings: Marburg virus pseudotyped entry inhibition, cell reporter; series mostly up to 37.8 µM
Potency means the concentration at half of the fitted maximal effect.

Row | SMILES | Potency
1 | N#CCSc1nnc(COc2cccc3ccccc23)n1-c1cccc(Cl)c1 | inconclusive: 16.4 µM [inhibitor, partial curve, poor fit]
2 | CCOC(=O)c1sc(-c2ccc(OC)cc2)cc1N | inconclusive: 10 µM [inhibitor, partial curve, poor fit]
3 | CN(CCOc1ccc(Cl)cc1)C(=O)c1cccc(S(=O)(=O)N2CCN(c3ccc(F)cc3)CC2)c1 | active: 7.08 µM
4 | Cc1ccc(C2(C)NC(=O)N(CC(=O)NC3CCCCC3)C2=O)cc1 (stereo unspecified) | inactive
5 | COCCNC(=O)c1ccc(NC(C)=O)cc1 | inactive
6 | COC(=O)Cc1ccc(NC(=S)N2CCN(CCO)CC2)cc1 | inactive
7 | NC(=S)N/N=C/c1ccc2cccc(OCc3ccccc3)c2n1 | inconclusive: 20 µM [inhibitor, partial curve, poor fit]
8 | CCCCNC(=O)c1cc2c(=O)n3cccc(C)c3nc2n(CCN2CCOCC2)c1=N | inconclusive: 7.94 µM [inhibitor, partial curve, poor fit]
9 | C=C1C(=O)c2sccc2C(c2ccc(OC)c(OC)c2)C1COC(C)=O (stereo unspecified) | active: 0.891 µM
10 | CC(=O)Nc1ccc2c(c1)OCCOCCOc1cc(NC(C)=O)ccc1OCCOCCOCCO2 | inactive
11 | Cc1ccc(C(=O)C2=C(O)C(=O)N(Cc3cccnc3)C2c2ccc(N(C)C)cc2)o1 (stereo unspecified) | inactive
12 | CCn1c(=O)sc2cc(NC(=O)c3cccc(OC)c3)ccc21 | inactive
13 | COc1ccc(S(=O)(=O)N2CCOCC2)cc1C(=O)NC1CCCCC1 | inconclusive: 0.891 µM [inhibitor, partial curve, poor fit]
14 | COc1cc(NC(=O)CSc2nc(C3CC3)nc3ccccc23)cc(OC)c1 | inconclusive: 5.62 µM [inhibitor, full curve, poor fit]
15 | OC1(C2(O)CC(c3ccccc3)ON2)CCCCC1 (stereo unspecified) | inconclusive: 22.4 µM [inhibitor, partial curve, poor fit]
16 | COc1cccc(C=C2SC(=S)NC2=O)c1 | inactive
17 | O=C(Nc1ccccc1C(=O)O)c1ccc(NC(=O)C2CCCO2)cc1 (stereo unspecified) | inconclusive: 3.55 µM [activator, single point]
18 | O=C(CCCc1cccs1)Nc1nc2c(s1)CCCC2 | inactive
19 | O=Cc1cc(N=Nc2cccc(C(=O)O)c2)ccc1O | inconclusive: 6.31 µM [inhibitor, partial curve]
20 | CCCCOC(=O)c1cccc(NC(=O)CCC(=O)O)c1 | inactive
21 | Cc1cccc(OCCSc2nc3ccc(NC(=O)c4cccs4)cc3s2)c1 | inactive
22 | Cc1ccc(C)c(NC(=O)CN(C)C(=O)c2ccccc2OCc2ccc(Cl)cc2)c1 | inconclusive: 14.1 µM [inhibitor, single point]
23 | NC(=S)NN=Cc1ccc(-c2ccc(S(=O)(=O)Nc3ncccn3)cc2)o1 | inactive
24 | O=C(CCC(=O)OCc1ccc([N+](=O)[O-])cc1)Nc1ccccc1Cl | inconclusive: 12.6 µM [inhibitor, partial curve]

Row | SMILES | Potency
25 | O=C(NC1=NCCS1)c1cccc2ccccc12 | inconclusive: 10 µM [activator, partial curve, poor fit]
26 | CCOC(=O)c1ccc(NC(=O)C2C3C=CC(C3)C2C(=O)O)cc1 (stereo unspecified) | inconclusive: 12.6 µM [activator, single point]
27 | CC(=O)NN=C1CCC(c2ccccc2)CC1 (stereo unspecified) | inactive
28 | O=C(Nc1ccc2c(c1)OCCO2)c1cccc2nc3ccccc3nc12 | inconclusive: 16.4 µM [inhibitor, partial curve, poor fit]
29 | Cc1ccccc1-n1c(SCC(=O)Nc2ccc3c(c2)OCO3)nnc1-c1ccccn1 | inconclusive: 20.6 µM [inhibitor, single point]
30 | Cc1cccc(Cn2cc(S(=O)(=O)c3ccc(Cl)cc3)c(=O)c3cc4c(cc32)OCO4)c1 | inactive
31 | CC(=O)c1ccc(NC(=O)c2ccc(NC(=O)CCS(=O)(=O)c3cccs3)cc2)cc1 | inconclusive: 2.24 µM [inhibitor, partial curve, poor fit] and inconclusive: 2.82 µM [inhibitor, single point]
32 | CC(C)COc1cccc(C(=O)N(C)CC(=O)Nc2cccc3ccccc23)c1 | inconclusive: 0.708 µM [activator, single point]
33 | COC(=O)C1(C)CN(S(=O)(=O)c2ccc(C)cc2)c2cc(OC)ccc2C1=O (stereo unspecified) | inactive
34 | CSc1ccccc1NC(=O)Cn1c(-c2cscn2)nc2ccccc21 | inconclusive: 29.1 µM [inhibitor, single point]
35 | C=CCn1c(SCc2csc(C)n2)nc2sc3c(c2c1=O)CCC(C)C3 (stereo unspecified) | inconclusive: 10.3 µM [inhibitor, partial curve, poor fit]
36 | O=C(NC(Cc1ccccc1)C(=O)O)/C(=C\c1ccc([N+](=O)[O-])cc1)NC(=O)c1ccco1 (stereo unspecified) | inconclusive: 6.31 µM [activator, single point]
37 | CC(=O)Oc1ccc(-c2ccc(C(=O)OCC(=O)N(C)CC(=O)Nc3ccccc3Cl)cc2)cc1 | inconclusive: 35.5 µM [inhibitor, single point]
38 | CCC1CCCCN1CCCNC(=O)C1CCCN(c2ncnc3c2nc2n3CCCCC2)C1 (stereo unspecified) | inconclusive: 10 µM [inhibitor, partial curve, poor fit]
39 | CN(C)S(=O)(=O)N1CCC(Oc2cccc(C(=O)NC3CCCCC3)c2)CC1 | inactive
40 | Cc1cc2ccccc2n1CCNC(=O)c1ccc(S(=O)(=O)N2CCCCC2)cc1 | inactive
41 | O=C1/C(=C/c2cccnc2)CCC/C1=C\c1cccnc1 | inconclusive: 3.98 µM [inhibitor, partial curve, poor fit]
42 | O=C(Cc1ccccc1)NC(NC(=S)Nc1cc(Cl)ccc1Cl)C(Cl)(Cl)Cl (stereo unspecified) | inactive
43 | O=C(CSCc1nc2ccccc2[nH]1)N1CCN(c2ccc(F)cc2)CC1 | inconclusive: 2.24 µM [inhibitor, full curve, poor fit]
44 | COc1cccc(/C=N/NC(=O)c2ccc(=O)n(C)c2)c1O | inconclusive: 17.8 µM [inhibitor, single point]
45 | CN(Cc1ccc(F)cc1)C(=O)c1cccc(OCc2ccccc2)c1 | inconclusive: 2.82 µM [activator, single point]
46 | CNc1oc(-c2ccccc2F)nc1S(=O)(=O)c1ccc(C)cc1 | inactive
47 | CCCCC(=O)Nc1cc2nn(-c3ccc(OCC)cc3)nc2cc1C | inconclusive: 8.91 µM [activator, partial curve, poor fit]
48 | CC(NC(=O)c1ccc(N(C)C)cc1)C1CC2CCC1C2 (stereo unspecified) | inconclusive: 0.891 µM [activator, single point]

Row | SMILES | Potency
49 | CC1=NN(C(=S)Nc2ccccc2)C(c2ccccc2)C1 (stereo unspecified) | inactive
50 | COC(=O)c1ccc2c(=O)[nH]c(COC(=O)c3c(-c4ccccc4Cl)noc3C)nc2c1 | inconclusive: 35.5 µM [inhibitor, partial curve, poor fit]
51 | CCC/C=N/NC(=O)c1ccccc1O | inconclusive: 35.5 µM [activator, single point]
52 | Cc1cccc(C)c1Nc1c(-c2cccs2)nc2ncccn12 | inconclusive: 8.91 µM [inhibitor, single point]
53 | Cc1cc(=O)[nH]c(N/N=C/c2cc(C)n(-c3ccccc3)c2C)n1 | inconclusive: 18.3 µM [inhibitor, partial curve, poor fit]
54 | COc1ccc(Cl)cc1C(=O)OCC(=O)NC1CCCC(C)C1C (stereo unspecified) | inactive
55 | CCCN(Cc1cc2ccc(C)cc2[nH]c1=O)S(=O)(=O)c1ccccc1 | inconclusive: 20 µM [inhibitor, partial curve, poor fit]
56 | COc1ccc(Nc2c(-c3ccc(C)o3)nc3ccc(Cl)cn23)cc1 | inactive
57 | Oc1ccc(/C=N/Nc2nccnc2Cl)cc1 | inconclusive: 31.6 µM [inhibitor, single point]
58 | N#Cc1nc(COc2ccc(-c3ccccc3)cc2)oc1NCCCN1CCOCC1 | inconclusive: 10 µM [inhibitor, partial curve, poor fit]
59 | COc1cccc(Nc2nc(NCCO)c3ccccc3n2)c1 | inconclusive: 28.2 µM [inhibitor, partial curve, poor fit]
60 | COc1ccc(CN2CCCC(C(=O)N3CCCCC3)C2)c(OC)c1 (stereo unspecified) | inactive
61 | CCN(CC)CCN1C(=O)C(O)=C(C(=O)c2cccs2)[C@@H]1c1ccccn1 | inactive
62 | Cc1sc2ncnc(N3CCC(C(=O)Nc4cc(Cl)ccc4Cl)CC3)c2c1C | inactive
63 | COc1ccc(C(=O)N2N=C(c3ccccc3)CC2(O)C(F)(F)F)cc1 (stereo unspecified) | active: 12.6 µM
64 | CCCCSc1nc(C)cc(NC(=S)Nc2ccc(OC)cc2)n1 | inconclusive: 6.51 µM [inhibitor, full curve]
65 | COc1ccc(S(=O)(=O)NCC2CCCN(C(=O)c3cccnc3)C2)cc1 (stereo unspecified) | inconclusive: 5.62 µM [activator, single point]
66 | CCN(Cc1ccncc1)C(=S)Nc1ccc(Cl)cc1 | inactive
67 | COCCn1c(=NC(=O)c2ccc(S(=O)(=O)N3CCc4ccccc4C3)cc2)sc2cc(S(N)(=O)=O)ccc21 | inactive
68 | COc1ccccc1NCCC(=O)OCC(=O)NC1CCCCC1 | inconclusive: 3.98 µM [activator, full curve, poor fit]
69 | C=CC#CC1(O)CC(C)[N+](C)(C)CC1C (stereo unspecified) | inconclusive: 22.4 µM [activator, single point]
70 | C#CC(C)(C)NC(=O)c1ccc(-c2ccccc2F)cc1 | inconclusive: 12.6 µM [activator, single point]
71 | Cc1cccc(NCc2cc(Cl)cc(Cl)c2O)n1 | inactive
